# Data as given in PubChem BioAssay AID1159578 (Peter MacCallum Cancer Centre, 2015)
# Screen: 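Genome-wide hunt for genes controlling movement of lymphatic endothelial cells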 (primary screen)
# System: human lymphatic endothelial cells
# Knock-down reagent: siRNA pool against human genes, 40 nM
# Duration: 48 h after transfection
# Measurement: 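High-content imaging of dye-stained cells in a scratch assay measures filled wound area and nuclei per well; duplicate means given as ratio to mock and robust z-score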
# Scale: migration robust z-score: higher = faster migration into the scratch; migration relative to mock: higher = more scratch area covered than mock; nuclei per well: higher = more cells in the well
# Active means: 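Pools averaging fewer than 3300 nuclei are never called; remaining pools count as changed when migration robust z lies outside -2 to 2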
# Calls: active = migration changed; inactive = no migration change, or too few cells
# In all, the deposit lists about 18,000 reagents; below is an unselected part. About 1,030 of all reagents (5.7%) were called active. 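Inactive calls also include pools with fewer than 3300 nuclei, whose migration was not assessed.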 The raw values are shown without normalisation. A number with no mark means an inactive call. No sequences are given here.
gene knocked down,migration robust z-score,migration class with cell-count check,migration relative to mock,"nuclei per well, duplicate mean"
SUSD3,-0.66,migration z between -2 and 2; enough cells,0.72,5532
SFTPD,-0.1,migration z between -2 and 2; enough cells,0.86,4818
CIART,0.67,migration z between -2 and 2; enough cells,1.05,4794
RANBP3L,2.88 (active),migration z above 2; enough cells,1.64,6266
CUZD1,0.46,migration z between -2 and 2; enough cells,1,5800
FGD6,1.7,migration z between -2 and 2; enough cells,1.32,5626
VPS26C,1,migration z between -2 and 2; enough cells,1.14,4816
CNFN,-2.09 (active),migration z below -2; enough cells,0.34,5214
SH2B1,1.06,migration z between -2 and 2; enough cells,1.16,5592
OR5D16,-0.19,migration z between -2 and 2; enough cells,0.84,7564
ASTN2,-0.85,migration z between -2 and 2; enough cells,0.67,4796
PLEKHG3,-1.98,migration z between -2 and 2; enough cells,0.37,4356
EPO,-0.04,migration z between -2 and 2; enough cells,0.88,5391
INTS15,1.29,migration z between -2 and 2; enough cells,1.22,5278
RIPPLY3,-0.04,migration z between -2 and 2; enough cells,0.88,5222
CHCHD4,1.12,migration z between -2 and 2; enough cells,1.17,5730
CHIA,1.17,migration z between -2 and 2; enough cells,1.03,4310
CLEC7A,-1.12,migration z between -2 and 2; enough cells,0.59,5508
TNN,0.1,migration z between -2 and 2; enough cells,0.91,6306
HSPB3,-0.52,migration z between -2 and 2; enough cells,0.75,4686
SFRP1,0.6,migration z between -2 and 2; enough cells,0.92,5724
CBY2,0.4,migration z between -2 and 2; enough cells,0.99,6376
RNF25,0.68,migration z between -2 and 2; enough cells,0.94,4679
NFAM1,0.99,migration z between -2 and 2; enough cells,1.14,4354
HSPA14,-0.2,migration z between -2 and 2; enough cells,0.76,4492
TMEM121,-0.02,migration z between -2 and 2; enough cells,0.88,6024
TPK1,-0.54,migration z between -2 and 2; enough cells,0.7,3482
SLC30A9,-1.86,migration z between -2 and 2; enough cells,0.4,3557
ACYP2,0.49,migration z between -2 and 2; enough cells,0.9,5670
CDHR1,1.68,migration z between -2 and 2; enough cells,1.32,5224
H2BC8,1.87,migration z between -2 and 2; enough cells,1.37,5776
GMCL1,-1.23,under 3300 nuclei; migration not judged,0.57,2620
OR52A5,-0.2,migration z between -2 and 2; enough cells,0.84,6592
GNE,1.48,migration z between -2 and 2; enough cells,1.09,7130
JPT1,0.04,migration z between -2 and 2; enough cells,0.9,6530
TUBB8,-0.91,migration z between -2 and 2; enough cells,0.65,5506
TCEAL7,-0.58,migration z between -2 and 2; enough cells,0.74,6113
STRADB,-1.79,migration z between -2 and 2; enough cells,0.46,4210
NRM,0.86,migration z between -2 and 2; enough cells,1.11,5956
PCDHB5,-0.22,migration z between -2 and 2; enough cells,0.82,5744
HSBP1,0.11,migration z between -2 and 2; enough cells,0.82,6220
POR,1.06,migration z between -2 and 2; enough cells,1.01,5236
ZNF182,-0.84,migration z between -2 and 2; enough cells,0.66,6052
UNKL,-1.22,migration z between -2 and 2; enough cells,0.57,5773
SPCS2P4,-0.01,migration z between -2 and 2; enough cells,0.88,6260
PRR25,-1.04,migration z between -2 and 2; enough cells,0.62,5616
RGS5,0.14,migration z between -2 and 2; enough cells,0.92,4711
RPL23,-0.3,migration z between -2 and 2; enough cells,0.8,4465
DTWD1,-1.4,migration z between -2 and 2; enough cells,0.52,5924
MINPP1,-0.94,migration z between -2 and 2; enough cells,0.62,5089
ASIC1,-1.22,migration z between -2 and 2; enough cells,0.57,4227
MAGOHB,1.71,migration z between -2 and 2; enough cells,1.34,6445
P2RY11,1.35,migration z between -2 and 2; enough cells,1.06,5970
RADX,0.24,migration z between -2 and 2; enough cells,0.94,7600
OR5AP2,-0.05,migration z between -2 and 2; enough cells,0.88,5183
WNT5A,-1.94,migration z between -2 and 2; enough cells,0.38,3870
IGSF11,-0.3,migration z between -2 and 2; enough cells,0.81,5125
ADIG,0.04,migration z between -2 and 2; enough cells,0.9,5842
APBB1,-0.66,migration z between -2 and 2; enough cells,0.72,4154
SLC45A1,1.21,migration z between -2 and 2; enough cells,1.2,5708
HSF4,-0.62,migration z between -2 and 2; enough cells,0.68,4493
MAML1,-0.05,migration z between -2 and 2; enough cells,0.8,5856
FAM114A2,-0.11,migration z between -2 and 2; enough cells,0.86,6381
FBLN1,1.36,migration z between -2 and 2; enough cells,1.24,6578
CSTF2,-0.87,migration z between -2 and 2; enough cells,0.66,5726
KRT31,0.3,migration z between -2 and 2; enough cells,0.97,5681
MGAT3,-0.49,migration z between -2 and 2; enough cells,0.71,5776
ZNF41,-1.62,migration z between -2 and 2; enough cells,0.46,3630
RDM1,-1.54,migration z between -2 and 2; enough cells,0.48,5896
ADM2,0.19,migration z between -2 and 2; enough cells,0.94,5144
EPG5,-1.23,migration z between -2 and 2; enough cells,0.56,3876
FIBCD1,-1.14,migration z between -2 and 2; enough cells,0.59,4495
FAM76A,-1.36,migration z between -2 and 2; enough cells,0.54,5142
